The AC50 is the midpoint of the concentration-response curve, whichever way the signal moves. Low readings indicate activity at low concentration, high ones activity only at high concentration.

This test in a line: qHTS Assay for Lipid Storage Modulators in Drosophila S3 Cells.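 On cell number change: cells counted by Cell Tracker Red CMTPX staining in the red channel.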 The note with it: BODIPY lipid droplet fluorescence, 18-24 h; for cell number change: measured here: cell count max response, cells fed with added oleic acid. Put shortly: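 Drosophila S3 cells loaded with oleic acid (400 uM, as added) and compounds at several concentrations; lipid droplets imaged by 488-nm laser-scanning cytometry, 500–530 nm intensity and object ratio to cell channel. Percent activity normalized to 20 uM Triacsin C.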

[1] abbreviates: measured here: lipid fluorescence (Fed channel) AC50, cells fed with added oleic acid.
The mark [2] stands for this setting: measured here: cell number channel AC50, cells fed with added oleic acid.

The list shows a part of the results. These are further read-outs of the screen, such as a control signal, another cell line or another target. No call is given for them. The list favours compounds with an active or inconclusive main result. Words in brackets tell the shape of the fitted curve; partial curves, single points and poor fits give uncertain potencies.

Regarding `Cc1ccc(NC(=O)CN(C)C(=O)c2cccc(S(=O)(=O)NCc3ccccc3)c2)cc1`, the cell number change was determined as 16%. Under setting [1], the AC50 is 7.31 µM [rising, partial curve, poor fit]. With `CN(c1ccc(Cl)cc1)S(=O)(=O)c1nnc(NC(=O)C(C)(C)C)s1`, the cell number change was -37.8%. Moreover, the AC50 under setting [2] is 23.1 µM [falling, single point]. In the case of `Cc1c(C)n2c(SCC(=O)NC3CCCC3)nnc2[nH]c1=O`, the cell number change is -15.5%. The AC50 under setting [1] is 29.1 µM [falling, single point]. As to `Cn1c(=NC(=O)CSCC(=O)N2CCCCC2)sc2ccccc21`, the cell number change turned out to be 58.6%. For the same compound, under setting [2], the AC50 is 9.2 µM [rising, partial curve]. As for `CCOC(=O)CC1(NC(=O)c2cc(COc3c(F)cccc3F)on2)CCCCC1`, the cell number change is -31%. For the same compound, under setting [2], the AC50 is 16.4 µM [falling, single point]. Also, under setting [1], the AC50 is 23.1 µM [falling, single point]. Consider `CC(C)CCC(O)(c1ccccc1)C(CN1CCOCC1)c1ccccc1` (centres undefined), for which the cell number change is 0.709%. Under setting [1], the AC50 was 1.16 µM [rising, full curve, poor fit].

Take `O=C(Nc1ccc(S(=O)(=O)Nc2nccs2)cc1)c1cc(-c2ccccn2)nc2ccccc12`: the cell number change came out at 39.7%. The AC50 under setting [2] was 29.1 µM [rising, single point].

Turning to `Cc1ccc(CN2CCN(C3CCC3)CC2CCO)cc1` (centres undefined), the cell number change came to 17.3%. Further, the AC50 under setting [1] is 5.8 µM [rising, full curve]. Take `O=C(CNc1cccc2ccccc12)N/N=C/c1cccc(Oc2ccccc2)c1`: the cell number change was determined as 1.91%. With `COc1cccc(NC(=O)C(C)Oc2ccccc2)c1` (centres undefined), the cell number change is -4.33%. Besides, the AC50 under setting [1] was 11.6 µM [rising, single point]. Regarding `N#Cc1ccc(C(=O)NC2CCCc3ccccc32)cc1` (centres undefined), the cell number change is -23.9%. Turning to `CC1CCCCN1Cc1c(O)ccc2c(=O)c(-c3ccc(Br)cc3)coc12` (centres undefined), the cell number change is -1.39%. The AC50 under setting [1] was 4.11 µM [rising, full curve].

For the compound `COCCNC(=O)CS(=O)(=O)Cc1nc(-c2ccc(C)cc2)oc1C`, the cell number change is 6.84%. Also, under setting [1], the AC50 is 7.31 µM [rising, partial curve, poor fit]. With `CCn1nnnc1NCc1ccc(SC)cc1`, the cell number change came out at 11.6%. The AC50 under setting [1] was 14.6 µM [rising, single point]. With `Cc1nn(Cc2ccc(F)cc2)c(C)c1NC(=O)c1noc2c1CCCCC2`, the half-maximal activity concentration (AC50) under setting [2] was 0.731 µM [rising, single point] and the AC50 under setting [1] is 1.16 µM [rising, full curve, poor fit]. On to `Cc1noc(NS(=O)(=O)c2ccc(NC(=O)/C=C/c3ccc(Br)cc3)cc2)c1C`, for which the cell number change came out at 11%. For the same compound, the AC50 under setting [2] is 4.11 µM [rising, single point]. Under setting [1], the AC50 was 29.1 µM [rising, partial curve]. Turning to `CN(CC(=O)Nc1ccccc1Cl)C(=O)Cn1cc(C(F)(F)F)ccc1=O`, the cell number change amounted to 5.17%. For the same compound, the concentration at half-maximal activity (AC50) under setting [1] was 29.1 µM [rising, single point]. Consider `S=C(NC1CCCCC1)N1CCOCCOCCN(C(=S)NC2CCCCC2)CCOCC1`, for which the cell number change was -16.5%. In addition, the AC50 under setting [1] is 32.6 µM [falling, single point].

For the compound `O=C(O)c1cccc(-c2ccc(/C=N/NC(=O)C3COc4ccccc4O3)o2)c1` (centres undefined), the cell number change was 9.87%. Further, the AC50 under setting [1] was 1.84 µM [rising, partial curve, poor fit]. In the case of `C#CCOCCOCCOCCNc1nc(N2CCN(C(=O)[C@H](CCCCN)n3cc(CC(C)O)nn3)CC2)nc(N2CCN(C(=O)[C@H](CCCCN)n3cc(CC(C)O)nn3)CC2)n1` (some centres undefined), the cell number change was 5.02%. Also, the half-maximal activity concentration (AC50) under setting [2] was 6.51 µM [falling, single point]. For the same compound, the AC50 under setting [1] was 3.26 µM [falling, single point].

In the case of `O=C(c1ccccc1)c1cccc(NC(=O)c2ccc(Br)o2)c1`, the cell number change was 24.1%. The AC50 under setting [2] was 2.06 µM [rising, single point]. Moreover, under setting [1], the AC50 is 1.46 µM [rising, full curve].

Take `O=C(NC(=S)Nc1ccccn1)c1cncc(Br)c1`: the cell number change was 12.1%. In addition, the AC50 under setting [1] was 1.64 µM [rising, full curve, poor fit]. `CCN1CCN(C(=O)CSc2nc3c(c(=O)n(C)c(=O)n3C)n2C)CC1`: the cell number change was determined as 6.41%. In addition, the AC50 under setting [1] was 29.1 µM [falling, single point].

`COc1ccc(-c2cc(-c3n[nH]c(=S)n3-c3ccccc3OC)[nH]n2)cc1`: under setting [1], the AC50 was 0.651 µM [rising, partial curve, poor fit]. Take `CC1(C)Cc2cccc(OCC(=O)NCc3ccccc3F)c2O1`: the cell number change is -17.6%.

For the compound `O=C(Cn1c(=O)oc2cc(S(=O)(=O)N3CCCCC3)ccc21)N1CCc2ccccc2C1`, the cell number change is -7.06%. Consider `CCc1ccc(CN(C)C(=O)C2CCC(=O)N(Cc3cccc(OC)c3)C2)nc1` (centres undefined), for which the cell number change turned out to be 23.7%. Under setting [1], the AC50 is 6.51 µM [falling, single point]. Take `CC(C)CNC(=S)Nc1ccccc1F`: the cell number change is -13%. The AC50 under setting [1] was 29.1 µM [falling, single point]. Regarding `COc1ccc(C(=O)N2N=C(c3cccc(OC)c3)CC2(O)C(F)(F)F)cc1` (centres undefined), the cell number change worked out at 55.9%. Besides, under setting [2], the AC50 is 9.2 µM [rising, partial curve]. Besides, the concentration at half-maximal activity (AC50) under setting [1] was 2.31 µM [rising, full curve]. For the compound `COc1ccc(NC(=O)CC2C(=O)N(c3ccc(OC)cc3)C(=O)N2CCc2cccs2)cc1` (centres undefined), the cell number change came out at 45%. In addition, the AC50 under setting [2] is 4.61 µM [rising, partial curve]. The AC50 under setting [1] was 6.51 µM [rising, single point]. As for `CC(C)CN(C(=O)c1cccc(S(=O)(=O)N2CCCCC2)c1)C1CCS(=O)(=O)C1` (centres undefined), the cell number change is -7.03%. Further, the AC50 under setting [1] is 2.59 µM [falling, full curve, poor fit].

With `COc1ccc(/C=N/NC(=O)c2cccnc2)cc1CSc1ccccn1`, the cell number change amounted to 12.3%. Besides, the AC50 under setting [1] was 1.16 µM [rising, full curve, poor fit].

On to `C=CCOc1ccccc1CN1CCCN(C)CC1`, for which the cell number change was 12.6%. With `COc1ccc(/C=N/NC(N)=S)cc1OC(=O)c1ccccc1`, the cell number change turned out to be 50.6%. The AC50 under setting [2] was 16.4 µM [rising, single point]. `Cc1cc(C(=O)NCc2cc(C)n(C)n2)sc1-c1ccccc1`: the cell number change was -22.1%. Moreover, under setting [2], the AC50 was 6.51 µM [rising, single point]. Moreover, the AC50 under setting [1] was 6.51 µM [rising, single point]. Consider `Cc1ccc2c(cnn2C(=O)CCCC(=O)NC(C)c2ccccc2)c1` (centres undefined), for which the cell number change was -17%. Under setting [1], the AC50 was 29.1 µM [rising, single point]. Take `CCCOc1ccccc1C1CC(=O)Nc2cc3c(cc21)OCO3` (centres undefined): the cell number change is -86.1%.

Turning to `Cc1oc2ccc(OC(C(=O)O)c3ccccc3)cc2c1C(=O)O` (centres undefined), the cell number change came to 19.2%. Under setting [1], the AC50 was 13 µM [rising, partial curve]. As for `CCOc1cccc(NC(=O)/C(C#N)=C\c2cn(CC(=O)O)c3ccccc23)c1`, the cell number change amounted to 2.07%. Turning to `CC(C)C(C)NC(=O)COC(=O)/C=C/c1ccc(S(=O)(=O)N2CCc3ccccc32)cc1` (centres undefined), the cell number change stood at 40.5%. Also, the AC50 under setting [2] is 11.6 µM [rising, partial curve]. Regarding `CN1C(=O)C2(OCCCO2)c2cc(Cl)ccc21`, the cell number change was -1.1%. In addition, the AC50 under setting [1] was 6.51 µM [rising, single point].

Regarding `CC(=O)c1ccc(N2CCN(C(=O)CCCn3c(=S)[nH]c4cc5c(cc4c3=O)OCO5)CC2)cc1`, the cell number change was -24.3%. In addition, the AC50 under setting [1] was 29.1 µM [falling, single point]. Take `O=C(COC(=O)c1nc(Cl)ccc1Cl)NCc1ccccc1`: the cell number change is -2.46%. In addition, the AC50 under setting [1] was 18.4 µM [falling, single point].

In the case of `O=C(NC12CC3CC(CC(C3)C1)C2)C12CC3CC(C1)CC(n1cnc(Cl)n1)(C3)C2`, the cell number change was -11.4%. For the same compound, the AC50 under setting [2] is 0.0291 µM [falling, full curve, poor fit]. As to `COc1ccc(NC(=O)c2cc3c(-c4ccc(OC)c(OC)c4)nn(C)c3s2)cc1OC`, the AC50 under setting [2] is 2.31 µM [rising, partial curve]. `COc1ccc(/C=C/C(=O)c2ccc3c(c2)OCCO3)cc1[N+](=O)[O-]`: the cell number change is -22.8%. Under setting [1], the AC50 was 29.1 µM [falling, single point]. As to `COc1ccc(N=C2S/C(=C\c3ccc(OCC(=O)O)cc3)C(=O)N2CCc2c[nH]c3ccccc23)cc1`, the cell number change worked out at 24.3%. Under setting [2], the AC50 is 3.66 µM [falling, single point]. For the compound `CC1CCCN(C(=O)CSCC(=O)N=c2sc3ccccc3n2C)C1` (centres undefined), the half-maximal activity concentration (AC50) was 0.651 µM [rising, single point] under setting [2] and 2.91 µM [rising, partial curve] under setting [1]. With `Cn1c(=O)c2c(SCC(=O)NCC3CCCO3)nc(-c3cccs3)nc2n(C)c1=O` (centres undefined), the AC50 under setting [2] is 0.082 µM [rising, full curve, poor fit] and the AC50 under setting [1] is 0.116 µM [rising, full curve, poor fit]. With `O=C(CCC(NC(=O)OCc1ccccc1)C(=O)OCc1ccccc1)NCC(=O)OCc1ccccc1` (centres undefined), the cell number change was 18.1%. Further, the AC50 under setting [1] was 0.0058 µM [rising, full curve, poor fit]. For the compound `CC1=C(C(=O)OCC(C)C)C23C(=O)c4ccccc4C2(O1)OC(N)=C3C#N` (centres undefined), the cell number change came out at 0.349%. The AC50 under setting [1] was 0.731 µM [rising, single point]. For the compound `CN(C)c1ccc(/C=C2\CCC/C(=C\c3ccccc3)C2=O)cc1`, the cell number change was -98.1%. Also, under setting [2], the AC50 was 20.6 µM [falling, partial curve]. Further, under setting [1], the AC50 is 16.4 µM [falling, partial curve]. As for `Cc1ccc(N(CCC#N)C(=O)CSc2nc3ccccc3c(=O)[nH]2)cc1`, the cell number change was found to be 16.6%. The AC50 under setting [1] is 5.8 µM [rising, single point]. In the case of `O=C(CCS(=O)(=O)c1ccccc1)NC1CCCC1`, the cell number change turned out to be 6.52%. Also, the AC50 under setting [1] was 16.4 µM [rising, single point]. Regarding `CC(OC(=O)C1CC(=O)N(Cc2ccco2)C1)C(=O)Nc1cccc(C#N)c1` (centres undefined), the cell number change is -14.5%.

In the case of `Oc1ccc(/C=N/Nc2ccnc3cc(Cl)ccc23)cc1O`, the cell number change was -20.5%. The AC50 under setting [1] was 29.1 µM [falling, single point].

Take `COCCCn1c(C)nnc1SCC(=O)NNC(=O)COc1ccc(Cl)cc1`: under setting [1], the AC50 was 29.1 µM [rising, single point]. Take `COc1ccc(-c2cc(C(=O)N3CCCC(C(F)(F)F)C3)c3ccccc3n2)cc1OC` (centres undefined): the cell number change turned out to be 4.32%. With `Cc1ccc(-n2ncc3c(=O)n(CC#N)cnc32)cc1C`, the cell number change was -15.7%. For the same compound, the AC50 under setting [1] is 0.411 µM [falling, full curve, poor fit].
